In paper PMC5562876, “The integration of Gβ and MAPK signaling cascade in zygote development” (Scientific Reports, 2017) one finds binding data, which are given here for six molecules.

Protein sequences, listed by entry. Tags and fused reporters are not part of them.
UniProt Q39026: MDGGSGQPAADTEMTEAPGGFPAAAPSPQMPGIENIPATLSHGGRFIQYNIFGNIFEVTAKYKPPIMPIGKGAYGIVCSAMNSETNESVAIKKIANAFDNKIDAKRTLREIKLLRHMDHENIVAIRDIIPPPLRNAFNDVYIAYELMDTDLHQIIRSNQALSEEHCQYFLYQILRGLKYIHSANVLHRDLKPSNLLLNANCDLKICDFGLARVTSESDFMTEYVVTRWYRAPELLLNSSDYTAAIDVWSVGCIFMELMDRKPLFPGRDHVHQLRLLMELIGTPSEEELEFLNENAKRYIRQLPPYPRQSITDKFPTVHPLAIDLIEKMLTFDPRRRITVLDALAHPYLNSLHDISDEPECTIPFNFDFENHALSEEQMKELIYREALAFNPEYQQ

The target of assay [1] is T1, MKK4 (expressed in Arabidopsis protoplasts) (Arabidopsis thaliana) (UniProt O80397).
T1 sequence: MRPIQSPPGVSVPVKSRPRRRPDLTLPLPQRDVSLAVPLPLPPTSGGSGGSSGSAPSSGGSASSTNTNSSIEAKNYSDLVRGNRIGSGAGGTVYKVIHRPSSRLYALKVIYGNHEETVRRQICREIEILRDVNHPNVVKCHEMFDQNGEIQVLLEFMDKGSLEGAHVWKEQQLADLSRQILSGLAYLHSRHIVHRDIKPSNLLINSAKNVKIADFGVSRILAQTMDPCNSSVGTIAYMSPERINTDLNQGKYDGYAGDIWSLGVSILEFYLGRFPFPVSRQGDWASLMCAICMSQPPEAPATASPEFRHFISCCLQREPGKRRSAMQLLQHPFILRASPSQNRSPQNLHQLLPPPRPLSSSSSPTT
Put plainly: co-IP; Arabidopsis protoplasts transformed with plasmids, 12 hours at 22 °C; anti-FLAG, anti-HA or anti-GFP agarose, 50 mM HEPES pH 7.5, 150 mM KCl, 1 mM EDTA, 0.5% Triton X-100, 1 mM DTT; immunoblot. (In general: Immunoblotting shows a protein as a band on a membrane.)

Assay [2] has as its target T2, MKK5 (expressed in Arabidopsis protoplasts) (Arabidopsis thaliana) (UniProt Q8RXG3).
T2 sequence: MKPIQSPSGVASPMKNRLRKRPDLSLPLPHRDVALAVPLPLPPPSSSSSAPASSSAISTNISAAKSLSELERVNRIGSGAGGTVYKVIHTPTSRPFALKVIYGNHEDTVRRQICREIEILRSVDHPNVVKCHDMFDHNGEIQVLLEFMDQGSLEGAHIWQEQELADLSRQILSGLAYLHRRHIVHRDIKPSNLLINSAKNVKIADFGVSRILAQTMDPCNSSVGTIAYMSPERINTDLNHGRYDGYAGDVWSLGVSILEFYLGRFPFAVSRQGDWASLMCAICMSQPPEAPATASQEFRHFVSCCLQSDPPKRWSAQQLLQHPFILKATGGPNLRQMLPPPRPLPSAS
The assay is described as above.

Assay [3] deals with MPK6 (expressed in Arabidopsis protoplasts) (Arabidopsis thaliana) (UniProt Q39026). Described as above.
Assay [4] has as its target MPK6-nLUC (Arabidopsis thaliana) (UniProt Q39026). Nature of the assay: split reporter; firefly luciferase complementation imaging; 35S-driven nLUC and cLUC constructs co-infiltrated by agrobacterium GV3101 into N. benthamiana leaves, 3 days at 22 °C, CCD imaging.
Assay [5] has as its target T3, MPK3-nLUC (Arabidopsis thaliana) (UniProt Q39023).
T3 sequence: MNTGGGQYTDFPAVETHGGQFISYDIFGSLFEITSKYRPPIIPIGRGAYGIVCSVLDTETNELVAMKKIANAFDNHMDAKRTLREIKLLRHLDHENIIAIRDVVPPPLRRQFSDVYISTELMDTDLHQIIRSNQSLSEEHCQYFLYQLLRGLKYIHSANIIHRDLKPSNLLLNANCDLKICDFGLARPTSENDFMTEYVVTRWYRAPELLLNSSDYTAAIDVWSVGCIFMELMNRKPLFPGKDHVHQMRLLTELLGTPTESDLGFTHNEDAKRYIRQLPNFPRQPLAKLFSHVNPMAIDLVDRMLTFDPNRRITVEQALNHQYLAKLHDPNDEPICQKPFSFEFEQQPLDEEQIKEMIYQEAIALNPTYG
Described as above.

No constants are given. Whether binding was seen depends on the method and setting. Binding seen in cells or lysates may run through a third protein. Some binding calls cover weakened binding; strength is not graded here. For some assays here: Tags and fused reporters may be left off the sequences shown.

B1: AGB1 (expressed in Arabidopsis protoplasts) (protein, UniProt P49177 1-377)
chain: MSVSELKERHAVATETVNNLRDQLRQRRLQLLDTDVARYSAAQGRTRVSFGATDLVCCRTLQGHTGKVYSLDWTPERNRIVSASQDGRLIVWNALTSQKTHAIKLPCAWVMTCAFSPNGQSVACGGLDSVCSIFSLSSTADKDGTVPVSRMLTGHRGYVSCCQYVPNEDAHLITSSGDQTCILWDVTTGLKTSVFGGEFQSGHTADVLSVSISGSNPNWFISGSCDSTARLWDTRAASRAVRTFHGHEGDVNTVKFFPDGYRFGTGSDDGTCRLYDIRTGHQLQVYQPHGDGENGPVTSIAFSVSGRLLFAGYASNNTCYVWDTLLGEVVLDLGLQQDSHRNRISCLGLSADGSALCTGSWDSNLKIWAFGGHRRVI
Regarding B1, the binding result in assay [1], in assay [2] and in assay [3] was “binds” in each case.

B2: GPA1 (expressed in Arabidopsis protoplasts) (protein, UniProt P18064 1-383)
chain: MGLLCSRSRHHTEDTDENTQAAEIERRIEQEAKAEKHIRKLLLLGAGESGKSTIFKQIKLLFQTGFDEGELKSYVPVIHANVYQTIKLLHDGTKEFAQNETDSAKYMLSSESIAIGEKLSEIGGRLDYPRLTKDIAEGIETLWKDPAIQETCARGNELQVPDCTKYLMENLKRLSDINYIPTKEDVLYARVRTTGVVEIQFSPVGENKKSGEVYRLFDVGGQRNERRKWIHLFEGVTAVIFCAAISEYDQTLFEDEQKNRMMETKELFDWVLKQPCFEKTSFMLFLNKFDIFEKKVLDVPLNVCEWFRDYQPVSSGKQEIEHAYEFVKKKFEELYYQNTAPDRVDRVFKIYRTTALDQKLVKKTFKLVDETLRRRNLLEAGLL
As to B2, the binding entry in assay [1] is given as “no binding”; in assay [2], “no binding”; in assay [3], “binds”.

B3: cLUC-GPA1 (protein, UniProt P18064 1-383)
chain: MGLLCSRSRHHTEDTDENTQAAEIERRIEQEAKAEKHIRKLLLLGAGESGKSTIFKQIKLLFQTGFDEGELKSYVPVIHANVYQTIKLLHDGTKEFAQNETDSAKYMLSSESIAIGEKLSEIGGRLDYPRLTKDIAEGIETLWKDPAIQETCARGNELQVPDCTKYLMENLKRLSDINYIPTKEDVLYARVRTTGVVEIQFSPVGENKKSGEVYRLFDVGGQRNERRKWIHLFEGVTAVIFCAAISEYDQTLFEDEQKNRMMETKELFDWVLKQPCFEKTSFMLFLNKFDIFEKKVLDVPLNVCEWFRDYQPVSSGKQEIEHAYEFVKKKFEELYYQNTAPDRVDRVFKIYRTTALDQKLVKKTFKLVDETLRRRNLLEAGLL
Turning to B3, the binding entry in assay [4] and in assay [5] was “binds” throughout.

B4: GPA1^Q222L (purified, pull-down) (natural protein, Arabidopsis thaliana, UniProt P18064 1-383, looked up)
chain: MGLLCSRSRHHTEDTDENTQAAEIERRIEQEAKAEKHIRKLLLLGAGESGKSTIFKQIKLLFQTGFDEGELKSYVPVIHANVYQTIKLLHDGTKEFAQNETDSAKYMLSSESIAIGEKLSEIGGRLDYPRLTKDIAEGIETLWKDPAIQETCARGNELQVPDCTKYLMENLKRLSDINYIPTKEDVLYARVRTTGVVEIQFSPVGENKKSGEVYRLFDVGGLRNERRKWIHLFEGVTAVIFCAAISEYDQTLFEDEQKNRMMETKELFDWVLKQPCFEKTSFMLFLNKFDIFEKKVLDVPLNVCEWFRDYQPVSSGKQEIEHAYEFVKKKFEELYYQNTAPDRVDRVFKIYRTTALDQKLVKKTFKLVDETLRRRNLLEAGLL
notes: GPA1, G protein alpha subunit, Arabidopsis thaliana, At2G26300, with Q222L; fusion protein; source: E. coli, purified (glutathione agarose beads)
As to B4, the binding entry in assay [4] and in assay [5] was “binds” in each case.

B5: AGG1 (purified, pull-down) (natural protein, Arabidopsis thaliana, UniProt Q9FDX9 1-98, looked up)
chain: MREETVVYEQEESVSHGGGKHRILAELARVEQEVAFLEKELKEVENTDIVSTVCEELLSVIEKGPDPLLPLTNGPLNLGWDRWFEGPNGGEGCRCLIL
notes: AGG1, G protein gamma subunit 1, Arabidopsis thaliana, At3G63420; fusion protein; source: E. coli, purified (glutathione agarose beads)
Regarding B5, the binding result in assay [4] and in assay [5] was “binds” each time.

B6: AGG2 (purified, pull-down) (natural protein, Arabidopsis thaliana, UniProt Q93V47 1-100, looked up)
chain: MEAGSSNSSGQLSGRVVDTRGKHRIQAELKRLEQEARFLEEELEQLEKMDNASASCKEFLDSVDSKPDPLLPETTGPVNATWDQWFEGPKEAKRCGCSIL
notes: AGG2, G protein gamma subunit 2, Arabidopsis thaliana, At3G22942; fusion protein; source: E. coli, purified (glutathione agarose beads)
For B6, the binding entry in assay [4] and in assay [5] was “binds” each time.
